Measurements reported in PubChem BioAssay AID652259 (Drosophila RNAi Screening Center, 2013).
The deposit covers about 22,000 reagents; this is a random part of those with a known target gene and a result. In the full data, 233 (1.1%) are marked active. 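Light values are raw, unnormalised plate reads; the ratio scores behind the reporter calls were not deposited.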 Names joined by + are all predicted targets of the reagent. Reagent sequences are not shown. Not given: the amount of reagent, the time to read-out, the dose of the treatment.

Screen: 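Identify new Wingless signalling regulators in fly cells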 (primary screen)
Cells: Drosophila clone 8 imaginal disc epithelial cells
Reagents: long dsRNA against Drosophila genes
Treatment: pathway stimulated by co-transfected Wingless expression plasmid
Measurement: 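Firefly luciferase from a tcf-site Wingless reporter, measured alongside co-transfected Renilla luciferase that tracks transfection; pathway stimulated by a Wingless plasmid; the firefly-to-Renilla ratio is not deposited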
Direction: firefly reporter light: higher = more Wg reporter light, before normalisation; Renilla control light: higher = more transfected or surviving cells
Call rule: 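a knock-down is a candidate when at least two out of four statistical tests show it departing from its plate mean; one test alone signals a weak candidate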
Calls: active = candidate regulator (raises or lowers reporter); inactive = not a candidate

target gene,DRSC id,"reporter change call, replicate 1","firefly reporter light, replicate 1","firefly reporter light, replicate 2","Renilla control light, replicate 1","Renilla control light, replicate 2",activity call
gom,DRSC04690,,1899,8896,612,2797,inactive
fd96Cb,DRSC16947,,11270,,11202,,inactive
Nepl4,DRSC03239,,8320,,4128,,inactive
CG1971,DRSC15406,,1744,3622,624,1216,inactive
CG32104,DRSC10127,,8541,,3069,,inactive
CG32104,DRSC10128,,9908,,3744,,inactive
tra2,DRSC07708,,15220,,3564,,inactive
RpS3A,DRSC17168,,8003,,10128,,inactive
Ada2b,DRSC16531,,23362,,4308,,inactive
B-H2,DRSC19335,Wg reporter activity raised,25040,,2486,,active
Dph2,DRSC16222,,4265,,2048,,inactive
KP78a + KP78b,DRSC16721,,16916,,3853,,inactive
KP78a + KP78b,DRSC16722,,15360,,3090,,inactive
CG31407,DRSC12761,,2567,,1288,,inactive
lncRNA:CR42646,DRSC04759,,24262,,11603,,inactive
CG12708,DRSC19490,,24589,,10566,,inactive
prage,DRSC17957,,37440,,13890,,inactive
prage,DRSC17958,,4022,9920,784,1747,inactive
prage,DRSC18490,,20422,,13452,,inactive
prage,DRSC18497,,29681,,16679,,inactive
CG31482,DRSC12582,,11051,,3085,,inactive
CG15386 + CG42371,DRSC00400,,2619,5744,1201,2625,inactive
Cht6,DRSC18001,,19156,,7968,,inactive
Cht6,DRSC18002,,21337,,3701,,inactive
Cht6,DRSC18253,,25320,,11997,,inactive
CG3701 (retired record),DRSC04408,,3920,4681,377,2662,inactive
CG3701 (retired record),DRSC04409,,4003,5428,536,2746,inactive
Hk,DRSC17638,,1264,,1009,,inactive
Hk,DRSC17639,,3936,,728,,inactive
Hk,DRSC18138,,2528,6368,659,1264,inactive
Hk,DRSC18674,,13125,,5692,,inactive
CG1236,DRSC12203,,9937,,4039,,inactive
Prosalpha6T,DRSC02873,,2645,5624,1080,2968,inactive
grnd,DRSC02020,,2880,5776,901,2851,inactive
CG43894,DRSC09225,,3857,,2240,,inactive
CG43894,DRSC10123,,6293,,1650,,inactive
Nsun5,DRSC15835,,2868,4449,578,1792,inactive
CG18809,DRSC19818,,8523,,6905,,inactive
mars,DRSC06656,,12920,,3158,,inactive
CG31262,DRSC13216,,4992,,1784,,inactive
CG13869 + CG11099,DRSC06428,,6957,,2624,,inactive
CG17019,DRSC06642,,7100,,2722,,inactive
Fas3,DRSC01638,,21808,,10937,,inactive
Fas3,DRSC03326,,1936,5689,673,2196,inactive
Fas3,DRSC22776,,4.90e5,4.51e5,1.90e5,1.23e5,inactive
CG42324,DRSC08431,,3866,,1872,,inactive
CG42324,DRSC08432,,4595,,2532,,inactive
CG13127,DRSC02223,,1783,7331,952,4085,inactive
Taf12L,DRSC00467,,2807,7648,1239,3483,inactive

Targets listed so far whose gene name begins with N or n:
target gene,DRSC id,"reporter change call, replicate 1","firefly reporter light, replicate 1","firefly reporter light, replicate 2","Renilla control light, replicate 1","Renilla control light, replicate 2",activity call
Nepl4,DRSC03239,,8320,,4128,,inactive
Nsun5,DRSC15835,,2868,4449,578,1792,inactive
